Measured values from PubChem BioAssay AID504467 (National Center for Advancing Translational Sciences (NCATS), 2011).
Screen size: about 330,000 compounds; about 7,700 (2.3%) were called active. The inconclusive results got no clear call from the source; some entries with a clear call stand among them for comparison. The call rests on the fitted dose curve; in most records, active means well fitted inhibition curve with a large enough effect; inconclusive means small, poorly fitted or top-dose-only effect, or effect the other way; inactive means flat fitted curve, though single readings scatter. A potency beside an inconclusive call is a rough fit, not a confirmed value.

assay: qHTS screen for small molecules that inhibit ELG1-dependent DNA repair in human embryonic kidney (HEK293T) cells expressing luciferase-tagged ELG1; settings: HEK293T ELG1-luciferase reporter, luminescence, 16 h, DNA damage induced by 5-fluorouridine; activity change, negative = inhibition: at 46.1 µM (top of the series); further: nearly all actives have a fitted effect of over 55% in size
How it was run: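 Overnight (16 hr) co-exposure of 2,000 cells/well to 5-fluorouridine and compound at 37 °C preceded detection. Luciferase was quantified via ONE-Glo luminescence; loss of signal denotes inhibition.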
On the % scale 0 is the no-effect control and ±100 the full control effect; potency means the concentration at half of the fitted maximal effect.

| Structure (SMILES) | Potency | activity change, negative = inhibition |
| --- | --- | --- |
| O=C(Nc1ccccc1)n1ccc(-c2ccc(-n3ccnc3)cc2)n1 | inconclusive: 16.4 µM [activator, partial curve] | – |
| CN1CCN(c2ccc(NC(=O)c3sc4ccccc4c3Cl)cc2)CC1 | inconclusive: 16.4 µM [activator, partial curve] | – |
| COc1ccc(NC(=O)c2cc(Cl)ccc2NC(=O)c2ccco2)c(OC)c1 | inconclusive: 18.4 µM [inhibitor, single point] | – |
| CCOc1ccccc1NC(=O)CSc1nc2ccccc2nc1N1CCOCC1 | inconclusive: 23.1 µM [inhibitor, single point] | – |
| COc1ccc(C(=O)O)cc1S(=O)(=O)NCCN(C)C | – | inactive: 5.19% |
| O=C(Nc1nc(-c2cccs2)cs1)c1ccc(S(=O)(=O)N2CCCC2)cc1 | active: 16.4 µM | – |
| COc1ccc(C2C(C(=O)N3CCN(C)CC3)c3ccccc3C(=O)N2C2CCCCC2)cc1 (stereo unspecified) | – | inactive: -4.62% |
| CN(C)C1=NC[C@H](Cc2ccccc2)N1CCc1cccc(F)c1 | – | inactive: -7.49% |
| O=C(CSc1nc2ccccc2s1)N1c2ccccc2Sc2ccc(Cl)cc21 | – | inactive: -4.46% |
| O=C(c1ccc(S(=O)(=O)Nc2ccc(F)cc2)cc1)N1CCN(c2ccccn2)CC1 | active: 16.4 µM | – |
| Cc1nnsc1C(=O)Nc1ccc(Cl)cc1 | inconclusive: 18.4 µM [activator, single point] | – |
| Cc1ccccc1Nc1ncnc2c1cnn2-c1ccccc1 | inconclusive: 6.51 µM [activator, single point] | – |
| O=C(CSc1nc2ccccc2o1)Nc1ccc(N2CCOCC2)cc1 | inconclusive: 18.4 µM [activator, partial curve, poor fit] | – |
| Nc1nc(N)nc(-c2ccc(Cl)cc2)n1 | inconclusive: 11.6 µM [activator, partial curve] | – |
| NC(=O)c1ccccc1NC(=O)CSC1=NCCS1 | inconclusive: 29.1 µM [activator, partial curve, poor fit] | – |
| O=[N+]([O-])c1ccc(Nc2cccc(F)c2)nc1 | – | inactive: 3.28% |
| O=C(CCSCc1ccccc1Cl)N1CCN(c2ccccn2)CC1 | inconclusive: 18.4 µM [activator, partial curve] | – |
| COC(=O)c1cccc(Cn2nc(C)c([N+](=O)[O-])c2C)c1 | – | inactive: -17.7% |
| COc1ccc(OC)c(S(=O)(=O)NCCCN2CCOCC2)c1 | – | inactive: -1.79% |
| CCCCc1ccc(S(=O)(=O)NC2CCS(=O)(=O)C2)cc1 (stereo unspecified) | active: 3.66 µM | – |
| O=C1/C(=C\c2cccs2)SC(=S)N1C1CCS(=O)(=O)C1 (stereo unspecified) | – | inactive: -13.9% |
| CCOC(=O)N1CCN(C(=O)c2ccc3c(c2)N(C)C(=O)/C(=C\c2ccc(OCC)c(OC)c2)S3)CC1 | inconclusive: 16.4 µM [inhibitor, single point] | – |

Single records, as listed above:
O=C(CCSCc1ccccc1Cl)N1CCN(c2ccccn2)CC1 as listed: Potency: inconclusive: 18.4 µM [activator, partial curve]
CN(C)C1=NC[C@H](Cc2ccccc2)N1CCc1cccc(F)c1 as listed: activity change, negative = inhibition: inactive: -7.49%
COC(=O)c1cccc(Cn2nc(C)c([N+](=O)[O-])c2C)c1 as listed: activity change, negative = inhibition: inactive: -17.7%
COc1ccc(OC)c(S(=O)(=O)NCCCN2CCOCC2)c1 as listed: activity change, negative = inhibition: inactive: -1.79%

Reformatted as comma-separated lines: two of the compounds above.
Structure (SMILES),Potency,"activity change, negative = inhibition"
CN(C)C1=NC[C@H](Cc2ccccc2)N1CCc1cccc(F)c1,–,inactive: -7.49%
Nc1nc(N)nc(-c2ccc(Cl)cc2)n1,"inconclusive: 11.6 µM [activator, partial curve]",–

Next compounds.

| Structure (SMILES) | Potency | activity change, negative = inhibition |
| --- | --- | --- |
| O=C(/C=C/c1cc([N+](=O)[O-])ccc1OC(F)F)Nc1cccc(OC(F)F)c1 | inconclusive: 5.8 µM [inhibitor, single point] | – |
| COc1ccc(C2=NS(=O)(=O)N(C)C(C(=O)NC3CCCCC3)=C2)cc1OC | inconclusive: 23.1 µM [inhibitor, partial curve] | – |
| Cc1cc(C)n(-c2ccc(C(=O)Nc3ccc(S(=O)(=O)N(C)C)cc3)cc2)n1 | inconclusive: 25.9 µM [inhibitor, partial curve, poor fit] | – |
| Cc1ccc(C)n1CCN1CCN(S(=O)(=O)c2ccc(F)cc2F)CC1 | – | inactive: 23.3% |
| Cc1cnc(NC(=O)c2cc3c(C)nn(-c4ccccc4)c3s2)s1 | – | inactive: -6.74% |
| CCc1ccc2oc(-c3cc(N=Cc4cccc(OC)c4O)ccc3O)nc2c1 | inconclusive: 2.59 µM [activator, full curve] | – |
| CC1(C)CC[C@]2(C(=O)O)CC[C@]3(CO)C(=CCC4[C@@]5(C)C[C@H](O)[C@H](O)[C@@](C)(C(=O)O)C5CC[C@]43C)[C@@H]2C1 (stereo partly specified) | inconclusive: 18.3 µM [activator, partial curve] | – |
| CCOC(=O)c1ccc(S(=O)(=O)N2CCN(CC(=O)NC(=O)NC(C)(C)C)CC2)cc1 | inconclusive: 23.1 µM [inhibitor, partial curve] | – |
| Cc1cccc(-n2c(C)cc(/C=N/n3cnnc3)c2C)c1 | – | inactive: 0.98% |
| COc1cccc(-c2ncc3ccccc3c2COC(=O)c2ccc(Br)cc2)c1 | inconclusive: 9.2 µM [inhibitor, partial curve] | – |
| COc1ccc2nc(NC(=O)CSc3cn[nH]n3)sc2c1 | inconclusive: 20.6 µM [activator, partial curve] | – |
| O=C(NCCC(=O)N1CCN(S(=O)(=O)c2ccc(F)cc2)CC1)Nc1ccccc1 | inconclusive: 31.6 µM [activator, single point] | – |
| Cn1cc(S(=O)(=O)N2CCCC2)cc1C(=O)NCCc1ccccc1 | – | inactive: 9.51% |
| Fc1ccc2cc(-c3ccsc3)ncc2c1 | inconclusive: 13 µM [activator, partial curve] | – |
| COc1ccc(C)cc1NC(=O)c1ccc2c(c1)OCO2 | inconclusive: 23.1 µM [activator, partial curve, poor fit] | – |
| Cc1ccc(S(=O)(=O)Nc2ccccc2CNc2c(C)n(C)n(-c3ccccc3)c2=O)cc1 | inconclusive: 29.1 µM [inhibitor, single point] | – |
| CCn1c(SC(C)C(=O)Nc2ccc3c(c2)OCCO3)nnc1C1CC1 (stereo unspecified) | inconclusive: 35.5 µM [activator, single point] | – |
| O=C(CCl)Nc1cc(-c2ccccc2)nn1-c1ccccc1 | inconclusive: 29.1 µM [inhibitor, single point] | – |
| CCN(CC(=O)NCc1ccc(F)cc1)C(=O)CCNS(=O)(=O)c1cccc(C)c1 | – | inactive: 0% |
| COc1cccc(C2N=C(c3ccccc3C)NO2)c1OC (stereo unspecified) | inconclusive: 14.6 µM [activator, single point] | – |
| CCCSc1nnc(-c2ccccc2N)c(=O)[nH]1 | inconclusive: 16.4 µM [activator, partial curve] | – |
| Cc1ccc(S(=O)(=O)NCCC(=O)Nc2cc(S(=O)(=O)N(C)C)ccc2C)cc1C | inconclusive: 20.6 µM [inhibitor, single point] | – |

| Structure (SMILES) | Potency | activity change, negative = inhibition |
| --- | --- | --- |
| COc1ccc(N(C(=O)c2ccco2)C(C(=O)NC2CCCCC2)c2cccs2)cc1OC (stereo unspecified) | inconclusive: 0.0291 µM [inhibitor, full curve] | – |
| CCN(CC)c1ccc(C2C(C(=O)OC)=C(C)NC(C)=C2C(=O)OC)cc1 | inconclusive: 0.651 µM [inhibitor, partial curve, poor fit] | – |
| Cc1nc2cc(NC(=O)NCCC3=CCCCC3)ccc2o1 | inconclusive: 16.4 µM [activator, partial curve, poor fit] | – |
| CC(C(=O)Nc1ccccc1C(F)(F)F)N1CCN(C)CC1 (stereo unspecified) | inconclusive: 39.8 µM [inhibitor, partial curve, poor fit] | – |
| Cc1ccc(NC(=O)N2CCCC2C(=O)Nc2nnc(C(C)C)s2)cc1 (stereo unspecified) | inconclusive: 16.4 µM [activator, partial curve, poor fit] | – |
| COc1ccccc1NC(=O)CSc1nc2n[nH]c(C)c2c(=N)n1-c1ccccc1Cl | inconclusive: 23.1 µM [inhibitor, partial curve, poor fit] | – |
| CCN(CC)c1ccc(NC(=O)C2CC(=O)N(Cc3ccccc3)C2)cc1 (stereo unspecified) | – | inactive: 3.23% |
| CCOc1ccc2c(c1)C(c1ccccc1)=NNC(c1ccccc1)=N2 | active: 13 µM | – |
| Cc1ccc2cc3c(NC(=O)c4ccco4)nn(CC(C)C)c3nc2c1 | – | inactive: -0.577% |
| COc1cccc(/C=N/NC(=S)Nc2cccc(C(=O)O)c2)c1O | inconclusive: 1.83 µM [activator, full curve] | – |
| CCNc1cc(=O)n(C)c(=O)n1C | inconclusive: 6.31 µM [activator, partial curve, poor fit] | – |
| O=C(NCCc1ccccc1)c1ccc([N+](=O)[O-])cc1 | inconclusive: 1.26 µM [activator, full curve, poor fit] | – |
| CCOC(=O)/C(=C\c1ccccc1)NC(=O)c1ccccc1 | – | inactive: 16% |
| CN1CCN(C(=O)c2ccc3c(Cl)c4c(nc3c2)CCCC4)CC1 | inconclusive: 8.2 µM [activator, partial curve, poor fit] | – |
| CN(c1ccccc1)S(=O)(=O)c1cccc(NC(=O)c2cncc(Br)c2)c1 | inconclusive: 29.1 µM [inhibitor, single point] | – |
| CN(C)C(=O)CCc1ccc2c3c([nH]c2c1)[C@]1(C)[C@@H](C(=O)N2CCOCC2)C[C@H](CC(=O)NCCCn2ccnc2)C(=O)N1CC3 | inconclusive: 29.1 µM [activator, partial curve, poor fit] | – |
| CC(C)C(NC(=O)c1ccc(Cl)cc1Cl)C(=O)N1CCN(S(=O)(=O)c2ccccc2)CC1 (stereo unspecified) | inconclusive: 29.1 µM [inhibitor, single point] | – |
| Cc1cc(C(=O)Nc2cccc(O)c2)c(C)o1 | inconclusive: 23.1 µM [activator, partial curve, poor fit] | – |
| CC(C)=CCC/C(C)=C/CNC(=O)C[C@H]1C[C@H](C(=O)N2CCOCC2)[C@@]2(C)c3[nH]c4cc(-c5ccco5)ccc4c3CCN2C1=O | inconclusive: 16.4 µM [inhibitor, partial curve] | – |
| CCOc1cc(C(=O)OCC(=O)Nc2cccc(S(=O)(=O)NC3=NCCCCC3)c2)cc(OCC)c1OCC | inconclusive: 5.17 µM [inhibitor, single point] | – |
| Cc1ccc(NC(=O)c2ccc(NCCN)c([N+](=O)[O-])c2)cc1 | inconclusive: 5.17 µM [activator, partial curve] | – |
| CCOC(=O)C1CCN(C(=O)/C=C/c2cc(OC)c(OC)c(OC)c2)CC1 | inconclusive: 29.1 µM [inhibitor, single point] | – |
